# Measurements taken from PubChem BioAssay AID1347426 (Functional Genomics Laboratory (NCATS/FGL), 2020).
# The campaign covered roughly 31,000 sequences. About 1,400 (4.5%) were called active.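 The calls were made as follows: active = median seed-adjusted z-score above 1 or below -1; inactive = the rest.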 Some of the results follow.
# Test: Novel Modifiers of Survival Motor Neuron (SMN) Protein: Gene Identification via Genome-wide siRNA Screen;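 also: luminescence tracks full-length SMN protein made from the SMN2 reporter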
# Details: HEK293T SMN2-luciferase reporter, siRNA knockdown, 72 h; actives lie on both sides
# How it was run: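 siRNA screen, 10418 genes ×3 siRNAs; 1 pmol/well, lipid reverse transfection into HEK293T SMN2-luc reporter line. 72 h, 37 °C, 5% CO2; ONE-Glo readout. Data: neg-ctrl normalized, log10, MAD; hit = MAD >1.0 or < -1.0.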
row,Sequence,median seed-adjusted z-score
1,GGGUCCUGUUCAUAAAGGATT against KCTD10,inactive: -0.506
2,UGUGGAGAAUGACUACAUATT against SPRY4,active: -1.23
3,CAUCCGAUUUAAUAGUGUUTT against TARDBP,inactive: 0.987
4,GCUGGUUUAUUUAACUCGATT against E2F6,inactive: -0.299
5,GGAGUUCCUGAGUACCCAATT against PTPRF,inactive: 0.413
6,GUUCGAAUCAAGAACCCUATT against NT5C3,inactive: -0.456
7,GGAUUUAAGUUGCUCUGGATT against SLC11A2,inactive: -0.157
8,GCACCGUAUUUGUGAUUGATT against CDH24,inactive: 0.31
9,CCUUGGUCUGAACACGAAATT against BIRC6,inactive: 0.0785
10,GUCGGGUCCUCACAAUUCATT against PUS1,inactive: -0.308
11,GCUAUGAUGUUUCGACAGATT against RAPGEF6,inactive: -0.186
12,GUGCAUCGAUUUAAGCAGATT against RIMS1,inactive: 0
13,GGUAUAAUCAGAAAACGGATT against ATP11A,inactive: 0.158
14,GGAGGAUCUUGUACCCAGATT against PNKP,inactive: -0.0563
15,UGCACAUCAAGUAUCCUAATT against SLC30A10,inactive: 0.523
16,GCAUUGACUUGGGUGAAGATT against GPR101,inactive: -0.265
17,GGGAAAUUCUACUCCAGUATT against CACNB2,inactive: 0
18,GGAAAUCACUACAUCCUGATT against IVD,inactive: -0.147
19,AGCCUUUCAUGAUUAUAGUTT against SSBP3,inactive: 0.00592
20,GGUAAAUACCAGCUACUAATT against BBS10,inactive: 0.298
21,AGACUAUGAUAGAAUCCCATT against LGI3,inactive: -0.0189
22,GAUUCGCAGUUUAGAUGUUTT against PRKAA2,inactive: -0.194

row,Sequence,median seed-adjusted z-score
1,CCGUGGAGCUUGUUGAUGATT against POP7,inactive: 0.114
2,CAGUUGACCAGAUCACAGATT against ARR3,inactive: -0.0936
3,CAGUUAUGUUCUACGCAGATT against KCND2,inactive: -0.245
4,ACAGCUAUAUGGACGAGAATT against FLI1,inactive: 0.255
5,CUGUCAUACUCCAAUGUAATT against GLYATL2,inactive: -0.947
6,GCAUCGUCAUGAUCACCAATT against PTPRU,inactive: 0
7,CACUUUAGCCUUUACGACATT against HERC1,inactive: 0.168
8,GGAGUCAACGGACAGGUUATT against PCDHA7,inactive: 0.552
9,CUCUUGGUGUUGGAACUCATT against OXSM,inactive: 0.22
10,CGACUACAUGUUCAAGAUUTT against RAB3A,inactive: -0.0787
11,CCGAUUUCAUCAUCACGCATT against MTHFR,inactive: 0
12,GACUGAUCUUCUAAGUUCATT against KIF11,inactive: -0.381
13,GGACAUUUACUGGGACGAUTT against BEST3,inactive: -0.211
14,GCUUGAUUCUGUGAUUGAATT against AK2,inactive: 0.418
15,GUAUUAUUUUCGUACACGATT against RABL3,inactive: 0.843
16,GCAAGACCACGCUCCUUUATT against ARL11,active: 1
17,CCUCGUCCGUAGUCUCCUUTT against ADRB1,active: 1.06
18,GGAUCACUACCGCUACUGATT against AHCY,inactive: -0.189
19,GCUUGUUCGGCUACACGAATT against CYP8B1,inactive: 0
20,CGAUAUAGUUUUACGAAGATT against LNX2,inactive: 0
21,GGAUCUCUGGAACAGCUCATT against ERCC1,inactive: -0.566
22,GGUGGUCGAUAAGGACUUUTT against OBP2B,inactive: -0.642

row,Sequence,median seed-adjusted z-score
1,GCAAGUUAGUGGAUUAAAATT against FOXP1,inactive: -0.198
2,GCAGCAACCACUUACUAGATT against FOXP1,inactive: -0.198
3,AGGUGGAGAUUCUCCAGCATT against ID1,inactive: 0
4,UAACAACUUCCAAUCCAAATT against SPINLW1,inactive: 0.00582
5,AAGGCUUCCUGAACUACUATT against IDUA,inactive: -0.353
6,GCAUCCUUAGCUUUACGUATT against ANK3,inactive: 0.0252
7,GCAUUAGCGCAGCUCGAGATT against CACNB1,inactive: 0.225
8,CCAGAUCCGAGACUAUGUATT against RAB37,inactive: 0.0678
9,CCUUCGAUCUUCAAGCCGATT against SEMA6C,inactive: 0.321
10,UGAAAUAUCUGCGUCAGAATT against GLYATL1,inactive: 0.0148
11,GAUAGAUAGGAAUCCAUUUTT against TBX18,inactive: 0.424
12,GUAUAUAAACAGACAAUGATT against DNAJC8,active: -1.62
13,GGAUCUGAUCUACAAGGCATT against PXK,inactive: -0.4
14,GGAAUGCAGUAGCAAAGAATT against MCOLN2,inactive: -0.0234
15,CUAUGAAAAUUGCAGGAGATT against GCM2,inactive: -0.241
16,CACCCGCAGUGAAACGAAATT against TMPRSS11F,inactive: -0.289
17,AGCUCAUCUUUCACCGGCATT against SPSB1,inactive: -0.378
18,GCAUCCCACUACUACAAAUTT against KSR2,inactive: -0.371
19,CCAUCGUGUUGGUCAAAUUTT against HTR3B,inactive: 0.153
20,ACAACUUGUUGUUAAAGGATT against IL10,inactive: 0.0967
21,CAUCACCUGUAGAACCUGATT against PIAS2,inactive: -0.096
22,GUACUUUCAUAGCCGGCAATT against FMO1,inactive: 0.323

row,Sequence,median seed-adjusted z-score
1,GGAUGACCACAAAUGGAGATT against PIGO,inactive: -0.218
2,GGGUAGCUAUCUUACGAGATT against PAPSS2,inactive: -0.201
3,CCCUAAUGGUGCUAUCUUUTT against PPOX,inactive: 0.519
4,GGACUUAAUUCUCAGAUUUTT against STK38L,inactive: 0.079
5,CCGAGAACCUCACAGAGAATT against FTSJ2,inactive: -0.277
6,CUAAGGAAGUAGUUGAUUATT against HADHB,inactive: -0.188
7,GCCUAGCAAUAGCAAGAUATT against PGDS,inactive: 0.02
8,GUGUGCAUUUUGACAGAGATT against XYLB,inactive: -0.414
9,GAGAUAUUUGAGUCGUUAATT against GBP7,inactive: 0
10,CACUGUGAAUGAUAAGCUGTT against DNMT3A,inactive: -0.643
11,GCCCUCAGGUUAUUGCGUATT against CACNA1A,inactive: -0.467
12,GGAAAUUUGUGAGGCCUUUTT against DUS2L,inactive: -0.705
13,GAACGACAGUUGUCAAAAUTT against KATNAL2,inactive: -0.85
14,GCUGCUUAUUUGAAUCCUUTT against SDHD,inactive: -0.538
15,GGCUAUUAUUGACAUGGUUTT against PDE8B,inactive: 0.217
16,CUUCUAACCUUGGAGCUCATT against PHGDH,inactive: 0.108
17,GUUUCAUCGUAUAUCAAUATT against HSD17B13,inactive: -0.329
18,UCAUCUACUACAAAACCUATT against GAL3ST2,inactive: 0
19,GGUUCGGCAUGAGUGUGAATT against ZNF187,inactive: 0.419
20,GACUAUGAAUUGCUGCAGATT against PCDHGC5,inactive: -0.0264
21,GGCCUGCUCUGUUCACCUUTT against CDIPT,inactive: 0.303
22,GGACCAGGAUUCUAUUACUTT against TAF1,inactive: -0.582

# Not a retest: entries from further up.
row,Sequence,median seed-adjusted z-score
7,CACUUUAGCCUUUACGACATT against HERC1,inactive: 0.168
8,GGAGUCAACGGACAGGUUATT against PCDHA7,inactive: 0.552
9,CUCUUGGUGUUGGAACUCATT against OXSM,inactive: 0.22

# (next part)

row,Sequence,median seed-adjusted z-score
1,GCGGCAAGGGUUUCAAGCATT against FIZ1,inactive: 0.154
2,GCUUUUGAACUAUUUGAUATT against CETN3,inactive: -0.0815
3,GGUUGCACCGGAUCCAAUATT against SYPL2,inactive: 0.233
4,GCAAUGCAGUCUUCCAAUUTT against DDX18,inactive: 0.241
5,GCAUGUAUGUACUCAGGUUTT against TBX4,inactive: 0.968
6,CAACAUUCUGUUUACCUUUTT against FCGR2B,inactive: -0.163
7,GAAGUCGGGUUGGACCUUATT against ZDHHC24,inactive: -0.695
8,CCUACUACCGGGAUGCUCATT against RAB26,inactive: 0.171
9,CAGCGACUUUUCUCUUUAATT against IDI1,inactive: -0.0118
10,CAGCGGAUCUUCACUCAAATT against NLGN1,inactive: 0.187
11,CGGUCUUUCUUAUUCAGUATT against ZDHHC4,inactive: 0.181
12,GGUUAAACUAAGAAUCCAATT against DBF4,inactive: -0.319
13,CCUUACAAGUCAUAGGAGATT against ZNF160,inactive: -0.454
14,CUCUGGAUAUGAUAUCGAATT against LRP2,inactive: -0.512
15,GGAACAAACCCUUAGCUAATT against SLITRK1,inactive: 0.215
16,GGGAAUUACUGAUCGUUCATT against TRIM4,inactive: 0
17,GCUGCUAUGAGGUCUCGUATT against KLC1,inactive: -0.0912
18,CAGAAGGCGUGAAAAGAUUTT against RGS10,inactive: 0.304
19,GAUUGAACAGAUGCAGUCATT against KRT77,inactive: -0.0863
20,GUGGGAAACCUGUCGAGGATT against PPP1R14A,inactive: 0.0124
